No constants are given. Whether binding was seen depends on the method and setting. For some assays here: In cells and extracts the contact can be indirect. Some binding calls cover weakened binding; strength is not graded here. For some assays here: Tags and fused reporters may be left off the sequences shown.
Assays:
[1] = target: T1, FOXM1 (human (endogenous in U2OS, HeLa, MCF-7)) (UniProt Q08050); assay: co-IP; anti-FOXM1 or control IgG immunoprecipitation from total cell lysates (U2OS, HeLa, MCF-7, Cr-Y575F lines), immunoblotting; lysis buffer 150 mM NaCl, 0.5 mM EDTA, 50 mM Tris-HCl pH 8.0, 1% Nonidet P-40; 2 h at 4 °C; some cells treated with imatinib and MG132
T1 sequence: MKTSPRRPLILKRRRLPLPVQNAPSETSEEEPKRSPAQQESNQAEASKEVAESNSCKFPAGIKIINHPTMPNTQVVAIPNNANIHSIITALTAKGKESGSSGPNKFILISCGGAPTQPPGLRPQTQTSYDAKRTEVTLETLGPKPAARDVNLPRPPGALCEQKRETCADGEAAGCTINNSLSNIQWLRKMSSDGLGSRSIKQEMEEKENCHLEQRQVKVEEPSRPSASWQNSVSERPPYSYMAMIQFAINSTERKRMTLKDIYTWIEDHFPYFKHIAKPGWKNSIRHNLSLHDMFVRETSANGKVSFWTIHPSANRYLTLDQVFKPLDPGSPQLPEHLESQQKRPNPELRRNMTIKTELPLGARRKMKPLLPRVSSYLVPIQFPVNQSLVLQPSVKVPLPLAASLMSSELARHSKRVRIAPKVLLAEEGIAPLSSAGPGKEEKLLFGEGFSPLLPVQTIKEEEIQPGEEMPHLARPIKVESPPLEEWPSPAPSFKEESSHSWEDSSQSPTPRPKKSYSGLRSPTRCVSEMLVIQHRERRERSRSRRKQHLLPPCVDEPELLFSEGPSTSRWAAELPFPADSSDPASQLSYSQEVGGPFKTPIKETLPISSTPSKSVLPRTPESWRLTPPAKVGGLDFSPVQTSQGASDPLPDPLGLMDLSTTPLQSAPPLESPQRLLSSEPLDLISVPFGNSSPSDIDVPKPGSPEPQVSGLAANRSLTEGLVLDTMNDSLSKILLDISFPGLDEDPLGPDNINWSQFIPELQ

Chains of the proteins cited; added tags and fusions are not shown. Lines headed by an entry give the natural chain unless they say otherwise; changes in a name come on top. A line that says so, or that is headed by a name, gives the form on record, which may keep a tag or linker.
UniProt P00519: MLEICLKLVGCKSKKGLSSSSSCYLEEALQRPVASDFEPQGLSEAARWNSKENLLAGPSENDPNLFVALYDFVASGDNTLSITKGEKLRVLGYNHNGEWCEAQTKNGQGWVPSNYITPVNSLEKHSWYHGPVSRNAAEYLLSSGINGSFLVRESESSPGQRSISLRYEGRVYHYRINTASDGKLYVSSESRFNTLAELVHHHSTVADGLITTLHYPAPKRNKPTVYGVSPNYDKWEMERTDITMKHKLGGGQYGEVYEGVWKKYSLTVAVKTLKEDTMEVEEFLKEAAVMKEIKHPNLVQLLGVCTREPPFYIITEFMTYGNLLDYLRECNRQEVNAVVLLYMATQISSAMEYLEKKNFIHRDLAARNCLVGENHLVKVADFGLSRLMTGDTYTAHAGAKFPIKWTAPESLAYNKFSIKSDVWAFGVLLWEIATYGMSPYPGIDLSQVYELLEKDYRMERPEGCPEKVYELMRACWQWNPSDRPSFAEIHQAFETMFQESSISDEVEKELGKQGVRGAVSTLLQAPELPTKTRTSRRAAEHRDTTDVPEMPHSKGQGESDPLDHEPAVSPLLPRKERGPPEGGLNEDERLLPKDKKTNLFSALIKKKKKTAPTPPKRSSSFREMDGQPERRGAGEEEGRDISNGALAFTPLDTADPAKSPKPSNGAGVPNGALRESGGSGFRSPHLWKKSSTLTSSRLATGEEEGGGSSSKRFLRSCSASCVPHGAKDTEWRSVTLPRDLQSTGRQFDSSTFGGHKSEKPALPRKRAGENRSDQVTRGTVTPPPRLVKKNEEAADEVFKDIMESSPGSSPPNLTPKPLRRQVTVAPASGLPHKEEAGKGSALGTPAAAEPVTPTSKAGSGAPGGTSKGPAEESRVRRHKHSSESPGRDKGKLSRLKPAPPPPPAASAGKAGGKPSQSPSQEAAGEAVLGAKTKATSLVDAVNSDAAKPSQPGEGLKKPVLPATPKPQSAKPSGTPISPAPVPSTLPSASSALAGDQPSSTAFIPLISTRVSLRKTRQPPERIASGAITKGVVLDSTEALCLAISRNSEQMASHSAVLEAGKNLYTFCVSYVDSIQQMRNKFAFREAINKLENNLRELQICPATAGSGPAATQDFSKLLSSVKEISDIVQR
Myc-ABL1 (P00519-2, form named): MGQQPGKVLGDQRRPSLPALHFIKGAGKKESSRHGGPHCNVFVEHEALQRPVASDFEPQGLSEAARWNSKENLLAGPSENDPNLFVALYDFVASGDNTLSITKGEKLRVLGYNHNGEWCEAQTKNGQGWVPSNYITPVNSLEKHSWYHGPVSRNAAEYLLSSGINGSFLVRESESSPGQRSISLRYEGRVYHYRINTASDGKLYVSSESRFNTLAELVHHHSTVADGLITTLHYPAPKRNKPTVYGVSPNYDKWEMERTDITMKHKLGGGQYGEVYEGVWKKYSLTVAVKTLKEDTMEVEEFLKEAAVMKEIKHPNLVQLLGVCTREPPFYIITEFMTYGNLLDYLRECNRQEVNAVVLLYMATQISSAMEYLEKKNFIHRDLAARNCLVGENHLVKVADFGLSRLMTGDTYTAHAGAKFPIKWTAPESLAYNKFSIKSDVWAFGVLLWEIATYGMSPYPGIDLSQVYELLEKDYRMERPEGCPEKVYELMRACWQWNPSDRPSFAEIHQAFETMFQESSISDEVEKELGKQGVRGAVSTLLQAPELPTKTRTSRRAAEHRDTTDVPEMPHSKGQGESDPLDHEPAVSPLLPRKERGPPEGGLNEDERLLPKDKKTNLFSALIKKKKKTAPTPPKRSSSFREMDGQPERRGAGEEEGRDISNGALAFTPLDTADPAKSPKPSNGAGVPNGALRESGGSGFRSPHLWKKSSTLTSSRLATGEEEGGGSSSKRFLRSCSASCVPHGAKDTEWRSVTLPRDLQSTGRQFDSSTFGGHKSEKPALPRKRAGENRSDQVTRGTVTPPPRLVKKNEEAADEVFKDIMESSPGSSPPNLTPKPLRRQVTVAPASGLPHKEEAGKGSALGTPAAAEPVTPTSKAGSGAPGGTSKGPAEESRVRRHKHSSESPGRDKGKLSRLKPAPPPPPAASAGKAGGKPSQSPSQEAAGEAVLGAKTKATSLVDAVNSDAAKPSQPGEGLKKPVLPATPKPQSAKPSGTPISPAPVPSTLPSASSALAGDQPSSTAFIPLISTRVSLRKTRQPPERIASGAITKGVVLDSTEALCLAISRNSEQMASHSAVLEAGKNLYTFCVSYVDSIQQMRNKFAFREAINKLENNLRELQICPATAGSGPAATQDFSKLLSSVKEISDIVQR
UniProt Q9UM11: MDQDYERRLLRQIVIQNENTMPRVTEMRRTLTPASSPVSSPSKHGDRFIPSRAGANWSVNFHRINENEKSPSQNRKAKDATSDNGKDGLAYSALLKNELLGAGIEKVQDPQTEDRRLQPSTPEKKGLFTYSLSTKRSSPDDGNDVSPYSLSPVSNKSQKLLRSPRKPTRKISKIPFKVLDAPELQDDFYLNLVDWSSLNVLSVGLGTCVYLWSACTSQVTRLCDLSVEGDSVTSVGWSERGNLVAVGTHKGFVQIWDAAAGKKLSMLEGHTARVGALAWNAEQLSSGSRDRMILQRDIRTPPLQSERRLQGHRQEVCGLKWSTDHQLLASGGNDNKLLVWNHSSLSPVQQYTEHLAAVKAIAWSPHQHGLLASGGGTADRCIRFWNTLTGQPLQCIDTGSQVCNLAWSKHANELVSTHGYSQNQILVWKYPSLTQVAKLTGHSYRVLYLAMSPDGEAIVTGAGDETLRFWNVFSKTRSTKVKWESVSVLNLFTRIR

[2] = target: T1, FOXM1 (human (endogenous in U2OS, HeLa, MCF-7)); assay: proximity ligation; in situ PLA (Duo-Link) in U2OS cells with anti-ABL1 and anti-FOXM1 antibodies; one antibody alone as control
[3] = target: T1, FOXM1 (human (endogenous in U2OS, HeLa, MCF-7)); assay: co-IP; anti-FOXM1 or IgG immunoprecipitation from cytoplasmic or nuclear fractions of HeLa and MCF-7 cells, immunoblotting
Flag-FOXM1 (human) [4] = target: T2, Flag-FOXM1 (human) (UniProt Q08050); assay: far-Western, overlay or dot blot; anti-Flag immunoprecipitate of 293FT cells (Flag-FOXM1 with Myc-ABL1), with or without PTPase at 37 °C for 2 h, resolved by SDS-PAGE and blotted; membrane incubated with purified soluble GST-ABL1 SH2, GST-ABL1 SH3 or GST at 4 °C overnight, detected with …; both purified
T2 sequence: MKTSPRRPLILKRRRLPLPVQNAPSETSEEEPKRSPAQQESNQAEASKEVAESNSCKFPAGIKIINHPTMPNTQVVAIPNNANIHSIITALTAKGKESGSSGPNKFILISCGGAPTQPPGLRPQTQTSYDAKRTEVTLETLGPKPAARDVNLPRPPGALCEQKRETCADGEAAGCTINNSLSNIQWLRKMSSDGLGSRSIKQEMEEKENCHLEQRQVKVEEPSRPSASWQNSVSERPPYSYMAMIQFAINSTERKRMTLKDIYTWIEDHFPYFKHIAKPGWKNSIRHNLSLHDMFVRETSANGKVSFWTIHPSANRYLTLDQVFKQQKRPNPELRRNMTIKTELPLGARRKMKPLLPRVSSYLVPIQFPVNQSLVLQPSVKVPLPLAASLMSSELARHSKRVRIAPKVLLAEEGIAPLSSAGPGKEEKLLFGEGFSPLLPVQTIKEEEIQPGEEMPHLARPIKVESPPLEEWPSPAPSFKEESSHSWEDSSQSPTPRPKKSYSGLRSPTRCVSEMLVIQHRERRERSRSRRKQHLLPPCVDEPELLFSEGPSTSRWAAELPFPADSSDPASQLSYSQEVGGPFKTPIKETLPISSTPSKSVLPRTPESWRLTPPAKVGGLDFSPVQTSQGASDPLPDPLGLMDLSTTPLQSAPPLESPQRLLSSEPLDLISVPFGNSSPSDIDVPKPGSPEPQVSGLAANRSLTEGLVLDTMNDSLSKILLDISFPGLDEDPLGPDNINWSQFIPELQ

[5] = target: T3, Flag-FOXM1(Y575F) (human) (UniProt Q08050); assay: co-IP; 293FT cells transfected with the indicated plasmids, immunoprecipitation (anti-FLAG, anti-Myc) and immunoblotting; lysis buffer 150 mM NaCl, 0.5 mM EDTA, 50 mM Tris-HCl pH 8.0, 1% Nonidet P-40; 2 h at 4 °C; with or without imatinib
T3 sequence: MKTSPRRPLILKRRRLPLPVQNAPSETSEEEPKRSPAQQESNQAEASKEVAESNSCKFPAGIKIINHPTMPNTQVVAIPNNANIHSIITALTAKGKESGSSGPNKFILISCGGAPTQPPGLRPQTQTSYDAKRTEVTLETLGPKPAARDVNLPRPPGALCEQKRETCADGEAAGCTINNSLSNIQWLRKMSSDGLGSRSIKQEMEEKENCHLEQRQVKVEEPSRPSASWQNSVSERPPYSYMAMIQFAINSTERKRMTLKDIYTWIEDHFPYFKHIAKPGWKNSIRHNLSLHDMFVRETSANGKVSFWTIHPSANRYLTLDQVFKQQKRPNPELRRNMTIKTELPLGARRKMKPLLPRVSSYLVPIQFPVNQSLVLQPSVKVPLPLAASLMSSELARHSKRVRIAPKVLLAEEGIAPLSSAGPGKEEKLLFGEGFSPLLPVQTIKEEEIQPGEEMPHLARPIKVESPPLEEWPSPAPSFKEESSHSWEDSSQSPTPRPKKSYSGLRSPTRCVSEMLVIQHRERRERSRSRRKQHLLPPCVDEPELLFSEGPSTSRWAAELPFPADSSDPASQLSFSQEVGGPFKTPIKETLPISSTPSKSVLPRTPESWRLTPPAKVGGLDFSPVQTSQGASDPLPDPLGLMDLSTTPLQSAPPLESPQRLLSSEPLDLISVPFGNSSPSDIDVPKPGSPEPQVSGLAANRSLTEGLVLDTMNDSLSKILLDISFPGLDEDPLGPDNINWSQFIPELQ

Flag-FOXM1 (human) [6] = target: T2, Flag-FOXM1 (human); assay: as above
FOXM1 aa 322-600 (human) = target: T4, FOXM1 aa 322-600 (human) (UniProt Q08050); assay: as above
T4 sequence: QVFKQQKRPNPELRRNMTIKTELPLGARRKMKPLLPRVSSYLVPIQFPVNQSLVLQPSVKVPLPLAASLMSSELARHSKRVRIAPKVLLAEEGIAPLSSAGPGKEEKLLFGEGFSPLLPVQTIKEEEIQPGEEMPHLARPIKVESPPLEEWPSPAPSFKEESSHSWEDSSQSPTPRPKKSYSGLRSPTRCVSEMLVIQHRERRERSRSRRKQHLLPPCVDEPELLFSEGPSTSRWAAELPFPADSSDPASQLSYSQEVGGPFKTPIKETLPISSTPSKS

[7] = target: T5, FOXM1 N-terminal repressor domain (NRD, aa 1-234) (human) (UniProt Q08050); assay: as above
T5 sequence: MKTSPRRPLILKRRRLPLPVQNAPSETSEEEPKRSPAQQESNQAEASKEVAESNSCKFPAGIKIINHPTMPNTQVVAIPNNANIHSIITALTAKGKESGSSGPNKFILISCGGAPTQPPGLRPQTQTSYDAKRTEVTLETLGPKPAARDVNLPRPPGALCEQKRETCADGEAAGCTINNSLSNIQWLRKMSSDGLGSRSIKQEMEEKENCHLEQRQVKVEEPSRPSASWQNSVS

[8] = target: T6, endogenous FOXM1(Y575F) (human (endogenous in HeLa, MCF-7)) (UniProt Q08050); assay: co-IP; anti-FOXM1 or control IgG immunoprecipitation from total cell lysates (U2OS, HeLa, MCF-7, Cr-Y575F lines), immunoblotting; lysis buffer 150 mM NaCl, 0.5 mM EDTA, 50 mM Tris-HCl pH 8.0, 1% Nonidet P-40; 2 h at 4 °C; some cells treated with imatinib and MG132
T6 sequence: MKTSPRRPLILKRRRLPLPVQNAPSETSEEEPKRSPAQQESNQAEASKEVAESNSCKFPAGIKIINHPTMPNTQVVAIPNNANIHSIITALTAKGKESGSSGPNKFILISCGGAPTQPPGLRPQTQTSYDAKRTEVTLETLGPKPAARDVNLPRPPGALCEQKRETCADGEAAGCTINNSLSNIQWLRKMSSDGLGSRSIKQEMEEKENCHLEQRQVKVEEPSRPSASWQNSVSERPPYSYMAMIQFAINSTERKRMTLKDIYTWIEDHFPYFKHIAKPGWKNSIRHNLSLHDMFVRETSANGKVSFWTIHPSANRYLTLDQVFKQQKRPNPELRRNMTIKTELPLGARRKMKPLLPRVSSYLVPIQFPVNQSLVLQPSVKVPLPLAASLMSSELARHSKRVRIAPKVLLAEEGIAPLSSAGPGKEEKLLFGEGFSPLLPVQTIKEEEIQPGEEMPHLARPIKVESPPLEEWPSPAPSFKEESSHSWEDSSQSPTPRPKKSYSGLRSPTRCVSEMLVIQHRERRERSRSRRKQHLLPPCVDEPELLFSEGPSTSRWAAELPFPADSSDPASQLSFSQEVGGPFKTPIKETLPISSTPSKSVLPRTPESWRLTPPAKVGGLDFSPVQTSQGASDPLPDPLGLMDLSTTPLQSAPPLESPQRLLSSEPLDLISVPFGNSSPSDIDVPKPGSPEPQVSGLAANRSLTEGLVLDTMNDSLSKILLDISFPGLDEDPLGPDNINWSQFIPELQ

GST-ABL1 SH2 (human) = GST-ABL1 SH2 (human) (UniProt P00519); assay: pull-down; GST fusion or GST bound to glutathione-Sepharose resin, incubated with 293FT lysate holding Flag-tagged FOXM1 for 2 h at 4 °C, washed 3 times with lysis buffer, immunoblotting; only the target purified
GST-ABL1 SH3 (human) = GST-ABL1 SH3 (human) (UniProt P00519); assay: as above

## ABL1 (from UniProt P00519 1-1130)
[1]
  binding: binds
[2]
  binding: binds
[3]
  binding: binds

## GST-ABL1 SH2 (from UniProt P00519 127-217) (domain or fragment)
Flag-FOXM1 (human) [4]
  binding: binds

## CDH1 in 293FT cells (from UniProt Q9UM11 1-496)
[5]
  binding: binds
Flag-FOXM1 (human) [6]
  binding: binds

## Myc-ABL1 (from UniProt P00519-2 1-1149)
FOXM1 aa 322-600 (human)
  binding: binds
Flag-FOXM1 (human) [6]
  binding: binds
[7]
  binding: binds

## GST-ABL1 SH3 (from UniProt P00519 61-121) (domain or fragment)
Flag-FOXM1 (human) [4]
  binding: binds

## CDH1, a coactivator of the E3 ubiquitin ligase anaphase-promoting complex/cyclosome (APC/C) (from UniProt Q9UM11 1-496)
[8]
  binding: binds
[1]
  binding: binds

B1: Flag-FOXM1 (protein, UniProt Q08050-2 1-748)
chain: MKTSPRRPLILKRRRLPLPVQNAPSETSEEEPKRSPAQQESNQAEASKEVAESNSCKFPAGIKIINHPTMPNTQVVAIPNNANIHSIITALTAKGKESGSSGPNKFILISCGGAPTQPPGLRPQTQTSYDAKRTEVTLETLGPKPAARDVNLPRPPGALCEQKRETCADGEAAGCTINNSLSNIQWLRKMSSDGLGSRSIKQEMEEKENCHLEQRQVKVEEPSRPSASWQNSVSERPPYSYMAMIQFAINSTERKRMTLKDIYTWIEDHFPYFKHIAKPGWKNSIRHNLSLHDMFVRETSANGKVSFWTIHPSANRYLTLDQVFKQQKRPNPELRRNMTIKTELPLGARRKMKPLLPRVSSYLVPIQFPVNQSLVLQPSVKVPLPLAASLMSSELARHSKRVRIAPKVLLAEEGIAPLSSAGPGKEEKLLFGEGFSPLLPVQTIKEEEIQPGEEMPHLARPIKVESPPLEEWPSPAPSFKEESSHSWEDSSQSPTPRPKKSYSGLRSPTRCVSEMLVIQHRERRERSRSRRKQHLLPPCVDEPELLFSEGPSTSRWAAELPFPADSSDPASQLSYSQEVGGPFKTPIKETLPISSTPSKSVLPRTPESWRLTPPAKVGGLDFSPVQTSQGASDPLPDPLGLMDLSTTPLQSAPPLESPQRLLSSEPLDLISVPFGNSSPSDIDVPKPGSPEPQVSGLAANRSLTEGLVLDTMNDSLSKILLDISFPGLDEDPLGPDNINWSQFIPELQ
GST-ABL1 SH2 (human)
  binding: binds
GST-ABL1 SH3 (human)
  binding: binds

— PMC11445503
